Publication PMC3681974

Protein sequences, listed by entry. Tags and fused reporters are not part of them. Lines headed by an entry give the natural chain unless they say otherwise; changes in a name come on top. Residues count along the entry.
UniProt P17697, residues 20-439: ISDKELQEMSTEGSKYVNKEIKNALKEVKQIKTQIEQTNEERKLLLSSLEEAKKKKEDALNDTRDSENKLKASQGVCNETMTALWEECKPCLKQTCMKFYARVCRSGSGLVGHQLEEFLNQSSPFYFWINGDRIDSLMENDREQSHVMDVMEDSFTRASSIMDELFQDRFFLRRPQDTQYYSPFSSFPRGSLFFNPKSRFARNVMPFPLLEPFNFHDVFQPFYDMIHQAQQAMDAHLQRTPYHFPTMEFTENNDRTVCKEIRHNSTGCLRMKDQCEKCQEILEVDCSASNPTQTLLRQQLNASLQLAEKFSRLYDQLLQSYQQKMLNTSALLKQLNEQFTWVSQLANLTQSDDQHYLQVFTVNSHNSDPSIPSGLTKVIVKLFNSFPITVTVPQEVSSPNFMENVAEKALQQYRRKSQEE
UniProt P81425: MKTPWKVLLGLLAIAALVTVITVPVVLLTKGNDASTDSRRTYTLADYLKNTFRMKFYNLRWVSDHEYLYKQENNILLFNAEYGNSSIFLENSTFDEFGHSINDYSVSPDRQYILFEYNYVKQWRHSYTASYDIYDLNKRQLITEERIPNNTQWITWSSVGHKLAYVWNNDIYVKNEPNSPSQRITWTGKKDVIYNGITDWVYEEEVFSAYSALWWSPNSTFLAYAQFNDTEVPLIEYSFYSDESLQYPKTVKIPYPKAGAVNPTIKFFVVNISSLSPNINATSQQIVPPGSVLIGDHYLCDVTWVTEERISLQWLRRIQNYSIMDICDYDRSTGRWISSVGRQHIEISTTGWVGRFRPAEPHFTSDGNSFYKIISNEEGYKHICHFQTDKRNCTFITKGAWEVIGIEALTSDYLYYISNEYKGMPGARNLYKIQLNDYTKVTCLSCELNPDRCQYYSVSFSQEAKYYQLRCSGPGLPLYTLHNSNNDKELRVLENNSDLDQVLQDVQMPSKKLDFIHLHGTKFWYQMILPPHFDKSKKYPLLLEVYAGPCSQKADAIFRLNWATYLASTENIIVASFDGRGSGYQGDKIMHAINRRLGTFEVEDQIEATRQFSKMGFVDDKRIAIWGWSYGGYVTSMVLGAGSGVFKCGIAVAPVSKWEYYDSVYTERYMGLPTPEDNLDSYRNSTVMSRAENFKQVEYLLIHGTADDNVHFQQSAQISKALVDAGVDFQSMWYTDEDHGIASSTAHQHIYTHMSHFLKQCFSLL
UniProt F1MGS8: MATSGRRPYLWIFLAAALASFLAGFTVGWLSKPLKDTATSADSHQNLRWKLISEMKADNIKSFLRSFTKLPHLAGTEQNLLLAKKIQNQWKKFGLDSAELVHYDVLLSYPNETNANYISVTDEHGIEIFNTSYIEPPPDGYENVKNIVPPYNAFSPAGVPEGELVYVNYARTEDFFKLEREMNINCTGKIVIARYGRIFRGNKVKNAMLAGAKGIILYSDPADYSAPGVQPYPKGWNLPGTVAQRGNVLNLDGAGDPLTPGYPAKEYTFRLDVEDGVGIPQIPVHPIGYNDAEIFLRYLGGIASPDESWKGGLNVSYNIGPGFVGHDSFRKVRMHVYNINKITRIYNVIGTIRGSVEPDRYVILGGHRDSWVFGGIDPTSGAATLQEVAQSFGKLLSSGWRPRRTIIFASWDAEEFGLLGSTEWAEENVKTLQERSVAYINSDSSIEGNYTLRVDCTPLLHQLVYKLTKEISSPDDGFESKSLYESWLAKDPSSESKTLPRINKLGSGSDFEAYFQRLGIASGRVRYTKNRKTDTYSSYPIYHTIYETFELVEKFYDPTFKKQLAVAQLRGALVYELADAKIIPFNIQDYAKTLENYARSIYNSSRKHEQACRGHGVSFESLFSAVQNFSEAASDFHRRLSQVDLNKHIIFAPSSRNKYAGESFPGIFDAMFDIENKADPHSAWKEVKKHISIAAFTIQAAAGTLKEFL

T1: Tetraspanin CD9 (bovine (endogenous in cauda epididymal fluid microvesicles)) (UniProt P30932)
T1 sequence: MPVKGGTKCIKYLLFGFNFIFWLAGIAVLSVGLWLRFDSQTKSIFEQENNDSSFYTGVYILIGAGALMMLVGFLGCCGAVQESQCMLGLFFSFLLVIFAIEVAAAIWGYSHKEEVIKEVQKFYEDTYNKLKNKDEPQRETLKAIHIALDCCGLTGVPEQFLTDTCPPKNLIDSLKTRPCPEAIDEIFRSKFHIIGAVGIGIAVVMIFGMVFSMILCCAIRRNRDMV


Target: T1, Tetraspanin CD9 (bovine (endogenous in cauda epididymal fluid microvesicles))
Assay: affinity purification with mass spectrometry; cauda epididymal small membranous vesicles lysed in 1% Brij O10, 10 mM Tris pH 7.4, 150 mM NaCl, 1 mM CaCl2, 1 mM MgCl2, 4°C; anti-CD9 immunoprecipitation on protein G-sepharose, normal mouse IgG as control; specific Coomassie bands of a non-reducing gel identified by LC-MS/MS

| Molecule | binding |
| --- | --- |
| CLUS_BOVIN Clusterin (from UniProt P17697 20-439) | binds |
| DPP4_BOVIN Dipeptidyl peptidase 4/CD26 (from UniProt P81425 1-765) | binds |

Second part, the molecule after the results:

| binding | Molecule |
| --- | --- |
| binds | N-acetylated-alpha-linked acid dipeptidase 2 (predicted protein) (from UniProt F1MGS8) |
| binds | ENPP3_BOVIN Ectonucleotide pyrophosphatase/phosphodiesterase family member 3 (protein, UniProt P15396 1-874) MQSTLNLSTEEPVKRNTVKKYKIICIVLLILLVAVSLALGLVAGLRQQEEQGSCRKKCFDASHRGLEGCRCDVGCKGRGDCCWDFEDTCVQSTQIWTCNKFRCGETRLESSLCSCSDDCLQRKDCCADYKSVCQGETSWVDEDCSTAQQPQCPEGFDLPPVILFSMDGFRAEYLQTWSTLVPNINKLKTCGVHSQYLRPAYPTKTFPNHYTIVTGLYPESHGIIDNNMYDINLNKNFSLSSKEKDNPAWWQGQPIWLTAMYQGLKVGTYFWPGSDVAINGTFPSIYKIYNRSVTYEERIFTLLKWLDLPKAERPDFYTIYVEEPDSQGHNYGPVSAGVIQALQLVDKTFGLLMEGLKQRNLVNCVNIILLADHGMDQTYCDKLEYMADYFSSINFYMFEGPAPRIRTRNIPQDFFTFNSEEIVRNLSCRKPDQHFKPYLSPDLPKRLHFAKNVRIDKVNLLVDRQWQAVRNRAYSYCGGGNHGYDNEFKSMEAIFLAHGPSFKQKTEVEPFDNIEVYNLLCDLLHIQPAPNNGTHGSLNHLLKVPFYEPSHAEELSKFSVCGFTVPLPTDTLGCSCSRLQTNSDLERVNQMLDLTQDEITATEKLNLPFGRPRLIQKNKEPCLLYHREYVSGFDKTLRMPLWSSYTVPKPGDTSPLPPTVPDCLRADVRVAPSESQNCSFSLADKNITHGFLYPPANNRTSNSQYDALITSNLVPMYEAFKTMWNYFHSVLLVKYAMERNGVNVVSGPVFDYDYDGHFDAPDEIADYAVNTSVPIPTHYFVVLTSCKNQSQTPDACTGWLDVLPFVIPHRPTNVESCPENKSESLWVEERFNVHTARVRDVELLTGLDFYQEKAQPVSEILQLKTYLPVFETVI |

No constants are given. Whether binding was seen depends on the method and setting. In cells and extracts the contact can be indirect. A yes stands for co-enrichment or nearness to the bait. Other partners may have been found.
